Measured values reported in publication PMC10864366, “Aggresome formation promotes ASK1/JNK signaling activation and stemness maintenance in ovarian cancer” (Nature Communications, 2024).
These are yes or no findings as the source states them, for the method shown. Binding seen in cells or lysates may run through a third protein. Some results given as binding are weak or reduced against the parent protein; the word gives no strength. Tags and fused reporters may be left off the sequences shown.

T1: Flag-OTUD1 (aa 1–286 truncation) (UniProt Q5VV17)
T1 sequence: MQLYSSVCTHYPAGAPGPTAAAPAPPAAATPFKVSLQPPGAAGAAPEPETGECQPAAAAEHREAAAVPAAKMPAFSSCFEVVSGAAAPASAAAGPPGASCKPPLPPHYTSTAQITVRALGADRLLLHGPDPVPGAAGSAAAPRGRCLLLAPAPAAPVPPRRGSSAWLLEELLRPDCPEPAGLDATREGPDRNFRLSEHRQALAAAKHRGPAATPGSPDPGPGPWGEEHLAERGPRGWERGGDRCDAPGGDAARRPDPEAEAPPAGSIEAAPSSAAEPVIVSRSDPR

T2: Flag-OTUD1 (aa 287–481 truncation) (UniProt Q5VV17)
T2 sequence: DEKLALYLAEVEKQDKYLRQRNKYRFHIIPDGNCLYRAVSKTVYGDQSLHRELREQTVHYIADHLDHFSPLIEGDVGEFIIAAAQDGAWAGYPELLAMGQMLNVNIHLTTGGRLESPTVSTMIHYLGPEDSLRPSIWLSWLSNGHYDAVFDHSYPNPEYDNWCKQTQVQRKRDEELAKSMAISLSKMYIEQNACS

B1: Flag-OTUD1 (aa 1–286 truncation) (domain or fragment, UniProt Q5VV17 1-286)
chain: T1 sequence
B2: Flag-OTUD1 (aa 287–481 truncation) (domain or fragment, UniProt Q5VV17 287-481)
chain: T2 sequence

Key:
[1] = molecular target: T1, Flag-OTUD1 (aa 1–286 truncation); assay: co-IP; 293T cells co-transfected with Flag- and HA-tagged constructs; lysate sonicated; anti-FLAG or anti-HA magnetic beads, 6–8 h at 4 °C; immunoblot; for the ASK1 N-terminus with co-transfected Flag-OTUD1 WT or M1
[2] = molecular target: T2, Flag-OTUD1 (aa 287–481 truncation); assay: as above

| Binder | binding [1] | binding [2] |
| --- | --- | --- |
| B1 | binds | – |
| B2 | – | no binding |
